According to publication PMC6336319, “EBNA3C facilitates RASSF1A downregulation through ubiquitin-mediated degradation and promoter hypermethylation to drive B-cell proliferation” (PLoS Pathogens, 2019):
Results are given in words; binding and its absence hold for the method and conditions named. In cells and extracts the contact can be indirect. Some binding calls cover weakened binding; strength is not graded here. For some assays here: Sequences can lack the tags named with a protein.

Sequences of proteins named here, by UniProt entry; tags and fusion partners are left off. A change or cut given only in a name is not applied to a line headed by its entry. A line that says so, or that is headed by a name, gives the form on record, which may keep a tag or linker. Residues count along the entry.
UniProt P03204: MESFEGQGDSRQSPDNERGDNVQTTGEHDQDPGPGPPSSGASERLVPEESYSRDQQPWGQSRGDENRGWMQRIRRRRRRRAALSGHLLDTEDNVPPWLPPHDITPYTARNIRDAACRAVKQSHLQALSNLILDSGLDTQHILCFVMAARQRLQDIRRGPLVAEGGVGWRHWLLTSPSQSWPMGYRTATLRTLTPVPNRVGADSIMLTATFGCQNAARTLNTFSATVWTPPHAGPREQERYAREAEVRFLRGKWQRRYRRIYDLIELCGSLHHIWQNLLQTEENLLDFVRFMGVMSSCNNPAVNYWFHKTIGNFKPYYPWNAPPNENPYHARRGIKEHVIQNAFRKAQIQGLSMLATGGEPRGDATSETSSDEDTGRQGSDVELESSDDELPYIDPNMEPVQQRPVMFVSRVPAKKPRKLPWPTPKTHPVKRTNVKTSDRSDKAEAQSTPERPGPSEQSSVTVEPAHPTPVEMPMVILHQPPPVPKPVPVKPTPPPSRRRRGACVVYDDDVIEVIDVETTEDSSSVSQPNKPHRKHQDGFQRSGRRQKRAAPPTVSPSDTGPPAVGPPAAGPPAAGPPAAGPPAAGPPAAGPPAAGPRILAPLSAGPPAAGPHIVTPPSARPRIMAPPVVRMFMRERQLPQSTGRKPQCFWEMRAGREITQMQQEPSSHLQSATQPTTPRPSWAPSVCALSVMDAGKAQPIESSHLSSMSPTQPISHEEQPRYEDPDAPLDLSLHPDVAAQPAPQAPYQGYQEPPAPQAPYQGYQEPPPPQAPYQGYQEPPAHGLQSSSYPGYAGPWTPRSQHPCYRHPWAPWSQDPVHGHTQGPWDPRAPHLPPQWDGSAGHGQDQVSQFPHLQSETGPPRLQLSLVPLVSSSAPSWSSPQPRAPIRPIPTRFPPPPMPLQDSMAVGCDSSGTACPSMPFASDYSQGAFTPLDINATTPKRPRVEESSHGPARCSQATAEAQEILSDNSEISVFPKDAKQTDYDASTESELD
Flag-tagged EBNA3C 1-365: residues 1-365 of P03204

Columns and labels:
[1] = molecular target: T1, Myc-tagged full-length RASSF1A (Ras association domain family isoform 1A) (human) (UniProt Q9NS23); assay: co-IP; Saos-2 cells co-transfected, lysed 48 h later in RIPA buffer (1% NP-40, 10 mM Tris pH 8.0, 2 mM EDTA, 150 mM NaCl); immunoprecipitation with 1 ug anti-Myc antibody, overnight at 4 °C; western blot with anti-Flag and anti-Myc
T1 sequence: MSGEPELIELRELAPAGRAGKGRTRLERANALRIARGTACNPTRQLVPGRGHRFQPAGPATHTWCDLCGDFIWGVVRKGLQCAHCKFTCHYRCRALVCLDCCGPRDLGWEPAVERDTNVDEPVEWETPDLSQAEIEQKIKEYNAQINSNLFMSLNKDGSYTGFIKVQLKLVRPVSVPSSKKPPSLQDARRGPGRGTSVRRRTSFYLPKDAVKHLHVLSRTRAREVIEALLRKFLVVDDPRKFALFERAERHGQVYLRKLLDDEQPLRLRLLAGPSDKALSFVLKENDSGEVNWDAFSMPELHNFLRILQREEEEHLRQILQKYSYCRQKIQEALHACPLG

[2] = molecular target: Flag-tagged EBNA3C 1-365 (Epstein-Barr virus) (UniProt P03204); assay: co-IP; Saos-2 cells co-transfected, lysed 48 h later in RIPA buffer (1% NP-40, 10 mM Tris pH 8.0, 2 mM EDTA, 150 mM NaCl); immunoprecipitation with 1 ug anti-Flag antibody, overnight at 4 °C; western blot with anti-Flag and anti-Myc
[3] = molecular target: Flag-tagged full-length EBNA3C (EBV-encoded nuclear antigen 3C) (Epstein-Barr virus) (UniProt P03204); assay: as above
[4] = molecular target: EBNA3C stably expressed in BJAB7 and BJAB10 cells (Epstein-Barr virus) (UniProt P03204); assay: co-IP; 60 million B cells (BJAB, BJAB7, BJAB10; LCL1, LCL2) lysed in RIPA buffer; immunoprecipitation with 1 ug anti-EBNA3C antibody, overnight at 4 °C; western blot for the endogenous partner
[5] = molecular target: EBNA3C of EBV-transformed lymphoblastoid cell lines LCL1 and LCL2 (Epstein-Barr virus) (UniProt P03204); assay: as above

## Flag-tagged full-length EBNA3C (EBV-encoded nuclear antigen 3C) (from UniProt P03204 1-992)
[1]
  binding: binds

B1: Myc-tagged full-length RASSF1A (Ras association domain family isoform 1A) (natural protein, human, UniProt Q9NS23-2 1-340, looked up)
chain: T1 sequence
notes: RASSF1A (Ras association domain family isoform 1A), full length, amplified from total RNA by RT-PCR and cloned into pA3M; also called Myc-RASSF1A; pA3M-RASSF1A; source: Saos-2, transfected, in lysate
[2]
  binding: binds
[3]
  binding: binds

B2: endogenous RASSF1A (protein, UniProt Q9NS23-2 1-340)
chain: T1 sequence
[4]
  binding: binds
[5]
  binding: binds
